Measured values as given in PubChem BioAssay AID707 (Columbia University Molecular Screening Center, 2007).
The list shows a part of the results, in another mix than the full data. The source made the active and inactive calls. No stated cut-off is given here; in the data, active means inhibition above about 80%; inactive means the rest.

The chains behind the UniProt entries cited, without tags or fusion partners.
UniProt P34913, whole entry, looked up: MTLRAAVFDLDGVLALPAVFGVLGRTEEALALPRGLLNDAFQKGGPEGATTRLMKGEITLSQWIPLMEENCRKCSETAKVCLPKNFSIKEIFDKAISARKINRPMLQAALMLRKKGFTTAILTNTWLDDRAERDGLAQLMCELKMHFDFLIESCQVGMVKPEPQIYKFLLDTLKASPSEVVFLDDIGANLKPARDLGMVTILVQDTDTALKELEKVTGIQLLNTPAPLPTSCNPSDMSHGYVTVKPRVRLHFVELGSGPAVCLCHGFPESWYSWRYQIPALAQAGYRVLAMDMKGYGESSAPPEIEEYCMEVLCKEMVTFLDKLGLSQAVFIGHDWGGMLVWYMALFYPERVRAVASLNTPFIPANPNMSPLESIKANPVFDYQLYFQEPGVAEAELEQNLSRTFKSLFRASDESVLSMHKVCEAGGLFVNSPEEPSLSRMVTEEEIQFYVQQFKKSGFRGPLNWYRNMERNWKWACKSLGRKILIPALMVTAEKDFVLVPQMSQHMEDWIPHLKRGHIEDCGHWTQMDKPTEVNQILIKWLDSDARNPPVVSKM

What follows are compounds tested against Bifunctional epoxide hydrolase 2 (Homo sapiens) (UniProt P34913) (assay: sEH enzyme activity blockers – biochemical, human sEH, primary screen (AID 707)). Details: recombinant human sEH enzymatic activity assay; at 2 µM; active compounds read high.

SMILES	inhibition
CCN(CC)S(=O)(=O)c1cccc(C(=O)Nc2ccc(Cl)cn2)c1	active: 83.9%
